Results taken from patent US9131722B2, “Composition comprising the extract of Actinidia arguta and related species for the prevention and treatment of allergic disease and non-allergic inflammatory disease” (VIROMED CO., LTD., priority 2002, dated 2015).
For at least one compound, name, drawing or mass did not settle the structure.

Legend:
[1] = tested on: ovalbumin-sensitized mouse; test: Ovalbumin-sensitized mouse model: ovalbumin-specific IgE, IgG1, IgG2a, IgG2b in serum (ELISA); type: in vivo; details: oral 11 days
Method: The ovalbumin-sensitized mouse model is commonly used as animal model of allergy. Female BALB/c mice, aged 6 weeks (Seoul national university animal experimental center) were adapted to the environment for 7 days. At the time of 7 weeks after birth, 100 μl of emulsion, mixed 25 μg of ovalbumin (chicken egg albumin, crude grade V, Sigma Co., Ltd.) with 2.25 mg of aluminum hydroxide (ImujectAlum, Pierce Co., Ltd.) was injected into mouse peritoneal cavity and 14 days after, it was injected once more for boosting.
And then 30 mice were divided into 3 groups and each group was orally administered with the hardy kiwifruit water extract of Example 1-1 (300 μg/mouse/day), dexamethasone (10 μg/mouse/day), or drinking water (100 μg/mouse/day) for 11 days, respectively. On the 25th day, mice were sacrificed and blood serum and spleen was collected therefrom.
In serum collected in Example 2-1, the serum levels of ovalbumin-specific IgE, IgG1, IgG2a and IgG2b were measured by ELISA kits (PharMingen Co., Ltd).

[2] = tested on: splenocytes of ovalbumin-sensitized mouse; test: Ovalbumin-sensitized mouse model: expression of cytokines by splenocytes re-stimulated with ovalbumin (ELISA); type: in vivo; details: splenocytes of OVA-sensitized mouse
Method: The ovalbumin-sensitized mouse model is commonly used as animal model of allergy. Female BALB/c mice, aged 6 weeks (Seoul national university animal experimental center) were adapted to the environment for 7 days.
On the 25th day, mice were sacrificed and blood serum and spleen was collected therefrom.
Each prepared splenocytes was pooled and homogenized under an aseptic condition.
Splenocytes prepared as above were inoculated in 24-well plate (5×10^6 cell/ml/well), treated with 100 μg/ml of ovalbumin, and incubated at 37° C. under an atmosphere containing 5% CO2 for 3 days. After cultivation was finished, a culture solution was gathered and then the concentration of cytokines (IL-4, IL-5, IL-12 and interferon-γ) related to allergy were measured by commercial ELISA kits.

C[C@@H]1C[C@H]2[C@@H]3CCC4=CC(=O)C=C[C@]4(C)[C@@]3(F)[C@@H](O)C[C@]2(C)[C@@]1(O)C(=O)CO [Dexamethasone, dexamethasone]
IgE level change (in words) [1]: similarly decreased | IgG1 level change (in words) [1]: similarly decreased | IgG2a level change (in words) [1]: not increased | level of Th1 cytokines IL-12 and interferon-γ (in words) [2]: decreased | level of Th2 cytokines IL4 and IL-5 (in words) [2]: decreased
